{"source": "patent US9096593B2", "about": "“Compounds and methods for kinase modulation, and indications therefor” (Plexxikon Inc., priority 2009, dated 2015)", "experiment": "Turbidity assay of relative solubility in aqueous buffers", "format": "physicochemical", "procedure": "As an indication of relative solubility, the turbidity of compounds in aqueous solutions is assessed. To assess possible compound properties in different physiological compartments, such as stomach, intestine, and blood, a series of aqueous buffers with varying pH is used. Thus each compound is diluted into four different physiologically relevant buffers and solution turbidity is measured by spectrophotometry.\nCompounds are dissolved at a concentration of 25 mM in dimethyl sulfoxide, then serially diluted 1:1 into a 96 well plate, diluting 10 times in pure dimethyl sulfoxide, with the final well of each row a dimethyl sulfoxide blank. In an assay plate, 99 μL of appropriate buffer is added to each well, and 1 μL of each sample dilution is added to the buffer, achieving a range of final total concentrations in aqueous solutions having different pH. The buffers used are Simulated Gastric Fluid (SGF-pH 1.5) 0.5M NaCl, pH 1.5; Simulated Intestinal fluid (SIF-pH 4.5 and pH 6.8) 0.05M NaH2PO4, pH 4.5 and 6.8; and Hepes Buffer (HEPES-pH 7.4) 10 mM HEPES, 150 mM NaCl, pH 7.4. Control compounds pyrene, estriol and propranolol HCl are also assessed. Plates are spun and then mixed for 1 minute, and the absorbance is read using a Tecan Safire II to read wavelengths in the visible range (490, 535, and 650 nm) at four locations per well, reflecting the degree of turbidity present. The average optical density for each wavelength in each well is graphed vs. compound concentration, and the concentration at which the curve crosses a threshold O.D. of 0.01 for each wavelength is reported as the endpoint turbidity assay result. The average of the three wavelengths is used to compare turbidity of compounds. Compounds are considered to have low solubility if the threshold concentration is <31.3 μM, moderate solubility if the threshold concentration is 31.3 μM to 250 μM, and high solubility if the threshold concentration is >250 μM.", "note": "For at least one compound, name, drawing or mass did not settle the structure.", "data": [{"smiles": "COc1cnc2[nH]cc(Cc3ccc(NCc4cccnc4OC)nc3F)c2c1", "note": "[Compound P-2043, [6-Fluoro-5-(5-methoxy-1H-pyrrolo[2,3-b]pyridin-3-ylmethyl)-pyridin-2-yl]-(2-methoxy-pyridin-3-ylmethyl)-amine]", "values": [{"measurement": "turbidity threshold (L, M, H) 1.4", "setting": "pH 1.4 as headed (method: SGF pH 1.5)", "result": "H (high solubility if the threshold concentration is >250 μM)"}, {"measurement": "turbidity threshold (L, M, H) 4.5", "setting": "pH 4.5 (SIF)", "result": "M (moderate solubility if the threshold concentration is 31.3 μM to 250 μM)"}, {"measurement": "turbidity threshold (L, M, H) 6.8", "setting": "pH 6.8 (SIF)", "result": "M (moderate solubility if the threshold concentration is 31.3 μM to 250 μM)"}, {"measurement": "turbidity threshold (L, M, H) 7.4", "setting": "pH 7.4 (HEPES)", "result": "M (moderate solubility if the threshold concentration is 31.3 μM to 250 μM)"}]}]}
